Source: PMC4947919

Molecular target: T1, Annexin A1 (mouse (endogenous in BV-2)) (UniProt P10107)
T1 sequence: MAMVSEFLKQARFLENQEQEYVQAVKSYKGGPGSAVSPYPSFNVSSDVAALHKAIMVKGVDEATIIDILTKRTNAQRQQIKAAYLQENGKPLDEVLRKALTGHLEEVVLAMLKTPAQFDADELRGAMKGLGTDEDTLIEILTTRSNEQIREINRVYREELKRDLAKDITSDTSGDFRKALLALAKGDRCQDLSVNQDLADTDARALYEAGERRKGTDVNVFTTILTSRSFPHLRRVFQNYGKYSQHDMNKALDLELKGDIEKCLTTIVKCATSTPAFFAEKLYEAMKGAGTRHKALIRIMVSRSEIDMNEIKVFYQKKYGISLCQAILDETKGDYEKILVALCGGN
Experiment: co-IP; BV-2 microglial cell lysates, control and OGD/R conditions; immunoprecipitation with polyclonal anti-ANXA1 overnight at 4 °C, protein A/G PLUS-agarose 4 h, 5 washes with lysis buffer; immunoblot with anti-PKC; IgG as negative control

With “Protein kinase C (mouse (endogenous in BV-2)) (enzyme)” the binding was “binds”.

These are yes or no findings as the source states them, for the method shown. In cells and extracts the contact can be indirect. Binding calls can cover weak binding; strength is not graded here.
